Experimental data taken from publication PMC7794433, “Peptide signaling without feedback in signal production operates as a true quorum sensing communication system in Bacillus subtilis” (Communications Biology, 2021).
Values joined by “and” are separate entries in the source; they are usually repeats but may differ in a detail not shown here. Equal values may be shown once.

Test system: ComX biosensor BD2876 (ΔcomQ, srfA-lacZ)
Assay: Biosensor based quantification of ComX concentration in B. subtilis spent medium
Set-up: species or system Bacillus subtilis

Sequence: ADPITRQWGD [ComX, isoprenylated (farnesylated) quorum sensing signal peptide of B. subtilis, HPLC purified from E. coli ED367]
- ComX concentration per unit of culture optical density (B. subtilis): 10 nM a.u.^−1
- ComX concentration in spent medium, early exponential growth phase (B. subtilis PS-216 ΔcomP, 37 °C CM): about 0.1 nM
- Stationary phase ComX concentration compared to typical AHL concentrations of Gram-negative bacteria (ComX 10 nM in B. subtilis, AHL from refs 35–38): 100–1000 times
- Exponent of ComX concentration versus OD650, all points fitted (before, when all points were taken into the fitting procedure (incl. < LOD 0.1 nM)): 2.05±0.10
- ComX concentration in tested spent medium, example determination (example of Supplementary Figure 1, PS-216 ΔcomP spent medium): 3 nM
- Parameter b (exponent) of allometric function, ComX concentration versus OD650 (spent medium of B. subtilis PS-216 ΔcomP, batch fermenter 37 °C, n = 3, data ≥ LOD): 2.09 ± 0.10 and 2.09
- Parameter a of allometric function SM = aN^b (spent medium of B. subtilis PS-216 ΔcomP, batch fermenter 37 °C, n = 3 biological replicates): 9.6 ± 0.6 nM a.u.^−2.09
- Parameter b (exponent), reanalyzed published data (strain JH642, reanalyzed with eq 1, activity of spent medium, ref Bacon Schneider et al. 19): 1.4 ± 0.4
